Drawing on article PMC7819943, “Rice protein-binding microarrays: a tool to detect cis-acting elements near promoter regions in rice”, this text covers binding signal for 42 sequences.

Sequences of proteins named here, by UniProt entry; tags and fusion partners are left off.
UniProt Q0JBA9, entry or part of it: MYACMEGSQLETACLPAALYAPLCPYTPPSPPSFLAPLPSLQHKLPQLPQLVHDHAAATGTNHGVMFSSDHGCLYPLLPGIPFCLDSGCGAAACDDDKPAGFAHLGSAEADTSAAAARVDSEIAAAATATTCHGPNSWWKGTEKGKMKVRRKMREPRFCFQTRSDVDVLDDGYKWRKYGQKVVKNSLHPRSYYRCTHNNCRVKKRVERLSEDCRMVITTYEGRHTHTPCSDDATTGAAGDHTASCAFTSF

Some of the results follow.

This assay has as its target OsWRKY34 (Oryza sativa, UniProt Q0JBA9 1-250). Put plainly: protein-binding microarray (RPBM); PBS, 2% BSA, 51.3 ng/ul salmon testes DNA, 50 uM zinc acetate, 200 nM TF, 25 C, 1 h; high values mean tight binding. The settings on record: protein: recombinant; tags: N-terminal polyhistidine and DsRed monomer fusion (pET32a); label: CyDye5-dUTP incorporated in the synthesized complementary strand; 3' TTTTT single-stranded linker to array surface; dsDNA, one strand shown. The method, boiled down:
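Transcription factors were made in E. coli BL21-CodonPlus as N-terminal fusions to a polyhistidine tag and DsRed, then purified on Ni–NTA. After primer extension with Cy5-dUTP and blocking with 2% BSA, a custom Agilent array was exposed for 1 h at 25 °C to 200 nM protein in PBS, 2% BSA, salmon testes DNA and 50 µM zinc acetate. Washed arrays were scanned on an Axon 4000B, and the binding signal is per-feature fluorescence intensity in arbitrary units.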
On to “GCACGCGCACATGCGACCGCACGCACGGCACCACACACACCGGAGTCACCTAGTGCAG”, for which the binding signal is 8920 fluorescence intensity (a.u.). The figure for “CATCGTTGAACTTTATCGTGCCCTTCACACCATTCCGTCGCGGAGTCACCTAGTGCAG” is 8130 fluorescence intensity (a.u.); for “ATTATATTTGTGTGTATAAGTAACTTTAAGATTTGTGATGCGGAGTCACCTAGTGCAG” it is 8310 fluorescence intensity (a.u.).

As for “GAAGACTAGTCATCTTGCTATCACGGTCACATTAATTACCCGGAGTCACCTAGTGCAG”, the binding signal is 10300 fluorescence intensity (a.u.). On to “GCTGCCGCCCTGTTCGTGCCATAGCGCAACCCAGCTCCGCCGGAGTCACCTAGTGCAG”, for which the binding signal is 8120 fluorescence intensity (a.u.). Regarding “ATCAGTCATTCTGCTTGCTTACCCGTTTTGGTTGACTTGTCGGAGTCACCTAGTGCAG”, the binding signal was 12500 fluorescence intensity (a.u.). Take “TTTTGCATCCATCTGTTTTACACTTACATTCCTATTAAAACGGAGTCACCTAGTGCAG”: the binding signal is 9960 fluorescence intensity (a.u.). On to “CGTGGGCCCCACCCGTGCCAGCTCACCTCATCCCCACCACCGGAGTCACCTAGTGCAG”, for which the binding signal was 8940 fluorescence intensity (a.u.). Regarding “GTTCTTTCGGCCGCCTCGCCTTCCACCGCGTCCGCGAATTCGGAGTCACCTAGTGCAG”, the binding signal was 12700 fluorescence intensity (a.u.). For the sequence “TCTTTATGACTCCTTTGTTGCACCTTATAGTTTAGTGTGTCGGAGTCACCTAGTGCAG”, the binding signal was 11300 fluorescence intensity (a.u.). Consider “ACATTTAAAACCAACTTTCACCCACCCACCCACTGCATTCCGGAGTCACCTAGTGCAG”, for which the binding signal is 9140 fluorescence intensity (a.u.).

For “AGTCAGTGGGTAAATTCTTTAAAAACTCCTATGTTTTTTCCGGAGTCACCTAGTGCAG”, the binding signal was 9550 fluorescence intensity (a.u.). In the case of “TCTCCGTTTCAAAATAGGTCCATTTTTCACCCAAACTACTCGGAGTCACCTAGTGCAG”, the binding signal was 8660 fluorescence intensity (a.u.). In the case of “CATTTGTTTTATTTTAGCATTTGTCACTTACATGTGGGACCGGAGTCACCTAGTGCAG”, the binding signal was 8400 fluorescence intensity (a.u.). As to “CAAATTGCTCAGCTGATCCGTGCCTATTTTTTTATTATTTCGGAGTCACCTAGTGCAG”, the binding signal was 8120 fluorescence intensity (a.u.). For “AATTGTTGGATCACGGTTTTACATGATGGGTTACAAGACCCGGAGTCACCTAGTGCAG”, the binding signal is 8060 fluorescence intensity (a.u.). For the sequence “GTGGATGGCCATCGGGGTAGAAGAGATGTGATGGGTTGACCGGAGTCACCTAGTGCAG”, the binding signal is 9160 fluorescence intensity (a.u.). As to “GCCGATCCCCTAGCTGACGTGGCAGCTACCTCAGCGCCAACGGAGTCACCTAGTGCAG”, the binding signal was 8470 fluorescence intensity (a.u.). Take “TCCAACGCCGCTGTCATTTCCAATCTCCCACCCATTTACTCGGAGTCACCTAGTGCAG”: the binding signal was 9400 fluorescence intensity (a.u.). Turning to “TTTAACTGTCATCCTTGTCAGCCTCACCGATTTGCTGTTGCGGAGTCACCTAGTGCAG”, the binding signal was 10000 fluorescence intensity (a.u.).

With “GTGGTTAGTGGTCATTGGTCATCCTTTCTCTTCTCAGATCCGGAGTCACCTAGTGCAG”, the binding signal was 8260 fluorescence intensity (a.u.). On to “GTCCGGGGTGGTGGTGGCCGCGACCGCGAGAGCGAATCAACGGAGTCACCTAGTGCAG”, for which the binding signal was 12900 fluorescence intensity (a.u.). As to “ACCCACCACTCCTTATCCACCTAGTCCTTATCCTCTTGTTCGGAGTCACCTAGTGCAG”, the binding signal is 9130 fluorescence intensity (a.u.). For the sequence “TCTCCTCTCCCAATCGCGCGCATCCGACCTCCTTCTTTCCCGGAGTCACCTAGTGCAG”, the binding signal was 8350 fluorescence intensity (a.u.). As to “CTCCAGAAGATAACCAGCGCGCGCTGATCTCGTCGTCTTCCGGAGTCACCTAGTGCAG”, the binding signal is 8100 fluorescence intensity (a.u.).

With “CTGTCTATGTTTTTTATGTTTAGCAGCTGCGCTGCTGCAGCGGAGTCACCTAGTGCAG”, the binding signal is 10100 fluorescence intensity (a.u.). On to “ACTTTATTATCTAAAGTACTTTAAGCGCAACTTTTCGTTTCGGAGTCACCTAGTGCAG”, for which the binding signal was 11600 fluorescence intensity (a.u.). For the sequence “TTGAGTTTTTGCTCGTAGTGTTTGACCACTCGTTTTATTACGGAGTCACCTAGTGCAG”, the binding signal was 9230 fluorescence intensity (a.u.). Turning to “AAAGCATTTCTCCTGCCTTCTCGTGTCTAACTGTCTATATCGGAGTCACCTAGTGCAG”, the binding signal is 8940 fluorescence intensity (a.u.). In the case of “CCACCCACCTCACCCACCACCTCTCTCTCTACTCCTCCTCCGGAGTCACCTAGTGCAG”, the binding signal was 8720 fluorescence intensity (a.u.). Under “GCCAAACAAACCATACTGCTGCTACAACTAGCACTCCTAACGGAGTCACCTAGTGCAG” stands 8670 fluorescence intensity (a.u.); under “ATGCTTTATCCGTTCTATATTATATTTTGACTTTTTAAGTCGGAGTCACCTAGTGCAG”, 8270 fluorescence intensity (a.u.). Under “TACTTTGTATGTGGCTTGTTTTTGTTTATGTTCAATTATCCGGAGTCACCTAGTGCAG” stands 8370 fluorescence intensity (a.u.); under “GTACGAAAAACAGGCACAGTACACTATCTTGTCCTAACTGCGGAGTCACCTAGTGCAG”, 9790 fluorescence intensity (a.u.).

“TGTGGTGGTGGTTGCTTCGAGTTTGCACAATATTTTTGGCCGGAGTCACCTAGTGCAG”: the binding signal was 10000 fluorescence intensity (a.u.). Regarding “CTTCCCTAAATGTTTGACGCCGTTGACTTTTCTAAACATGCGGAGTCACCTAGTGCAG”, the binding signal is 18600 fluorescence intensity (a.u.).

Take “TTGCTTCATTTATCAAGTTGGGTGCTTCTACATCTTCCCCCGGAGTCACCTAGTGCAG”: the binding signal is 10400 fluorescence intensity (a.u.).

In the case of “ACGGATAGATACATCTTTGCCACTGCAGCTGCACTGCACACGGAGTCACCTAGTGCAG”, the binding signal was 8840 fluorescence intensity (a.u.).

As to “ATGTTTGACCGTTCGTCTTATTCGAAAACTTTTATGAAATCGGAGTCACCTAGTGCAG”, the binding signal is 9600 fluorescence intensity (a.u.). For the sequence “ACTAACTCCATTTTTTTTTGTTACTGTCTGCTAGCCGAAACGGAGTCACCTAGTGCAG”, the binding signal was 8860 fluorescence intensity (a.u.). For “GTTGAAGAGGGAGATGGCGACGGCGGGGCTGGCACGCGCGCGGAGTCACCTAGTGCAG”, the binding signal was 8550 fluorescence intensity (a.u.). As to “GGTCTCATCCTGATCGATCTCTGCGAGTTTATCCAATATCCGGAGTCACCTAGTGCAG”, the binding signal was 9180 fluorescence intensity (a.u.).
